Measured values reported in the supplement of paper PMC10849652.
The other results are listed elsewhere or left out.

Protein sequences, listed by entry. Tags and fused reporters are not part of them. Lines headed by an entry give the natural chain unless they say otherwise; changes in a name come on top.
UniProt Q9H0R8, whole entry, looked up: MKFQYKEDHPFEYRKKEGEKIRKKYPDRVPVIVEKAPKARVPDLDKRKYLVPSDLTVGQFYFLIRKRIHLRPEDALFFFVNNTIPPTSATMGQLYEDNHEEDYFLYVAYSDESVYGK
UniProt P51116, whole entry, looked up: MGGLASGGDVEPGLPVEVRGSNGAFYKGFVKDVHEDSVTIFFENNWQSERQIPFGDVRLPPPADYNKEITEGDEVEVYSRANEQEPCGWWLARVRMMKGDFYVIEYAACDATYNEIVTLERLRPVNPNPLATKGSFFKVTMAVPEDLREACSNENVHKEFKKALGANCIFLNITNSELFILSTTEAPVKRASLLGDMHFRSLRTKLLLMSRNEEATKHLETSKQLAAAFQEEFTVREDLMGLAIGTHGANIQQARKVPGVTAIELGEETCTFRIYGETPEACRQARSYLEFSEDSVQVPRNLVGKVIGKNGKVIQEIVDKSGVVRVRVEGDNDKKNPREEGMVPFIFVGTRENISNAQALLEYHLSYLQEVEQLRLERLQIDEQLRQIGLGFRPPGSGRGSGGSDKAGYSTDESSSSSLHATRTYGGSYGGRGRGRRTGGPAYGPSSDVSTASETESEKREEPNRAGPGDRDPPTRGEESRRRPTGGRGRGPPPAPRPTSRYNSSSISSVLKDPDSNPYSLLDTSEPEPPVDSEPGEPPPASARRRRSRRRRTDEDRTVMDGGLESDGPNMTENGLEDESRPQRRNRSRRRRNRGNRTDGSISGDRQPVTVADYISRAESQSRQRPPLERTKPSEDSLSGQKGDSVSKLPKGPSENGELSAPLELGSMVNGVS
UniProt O14976: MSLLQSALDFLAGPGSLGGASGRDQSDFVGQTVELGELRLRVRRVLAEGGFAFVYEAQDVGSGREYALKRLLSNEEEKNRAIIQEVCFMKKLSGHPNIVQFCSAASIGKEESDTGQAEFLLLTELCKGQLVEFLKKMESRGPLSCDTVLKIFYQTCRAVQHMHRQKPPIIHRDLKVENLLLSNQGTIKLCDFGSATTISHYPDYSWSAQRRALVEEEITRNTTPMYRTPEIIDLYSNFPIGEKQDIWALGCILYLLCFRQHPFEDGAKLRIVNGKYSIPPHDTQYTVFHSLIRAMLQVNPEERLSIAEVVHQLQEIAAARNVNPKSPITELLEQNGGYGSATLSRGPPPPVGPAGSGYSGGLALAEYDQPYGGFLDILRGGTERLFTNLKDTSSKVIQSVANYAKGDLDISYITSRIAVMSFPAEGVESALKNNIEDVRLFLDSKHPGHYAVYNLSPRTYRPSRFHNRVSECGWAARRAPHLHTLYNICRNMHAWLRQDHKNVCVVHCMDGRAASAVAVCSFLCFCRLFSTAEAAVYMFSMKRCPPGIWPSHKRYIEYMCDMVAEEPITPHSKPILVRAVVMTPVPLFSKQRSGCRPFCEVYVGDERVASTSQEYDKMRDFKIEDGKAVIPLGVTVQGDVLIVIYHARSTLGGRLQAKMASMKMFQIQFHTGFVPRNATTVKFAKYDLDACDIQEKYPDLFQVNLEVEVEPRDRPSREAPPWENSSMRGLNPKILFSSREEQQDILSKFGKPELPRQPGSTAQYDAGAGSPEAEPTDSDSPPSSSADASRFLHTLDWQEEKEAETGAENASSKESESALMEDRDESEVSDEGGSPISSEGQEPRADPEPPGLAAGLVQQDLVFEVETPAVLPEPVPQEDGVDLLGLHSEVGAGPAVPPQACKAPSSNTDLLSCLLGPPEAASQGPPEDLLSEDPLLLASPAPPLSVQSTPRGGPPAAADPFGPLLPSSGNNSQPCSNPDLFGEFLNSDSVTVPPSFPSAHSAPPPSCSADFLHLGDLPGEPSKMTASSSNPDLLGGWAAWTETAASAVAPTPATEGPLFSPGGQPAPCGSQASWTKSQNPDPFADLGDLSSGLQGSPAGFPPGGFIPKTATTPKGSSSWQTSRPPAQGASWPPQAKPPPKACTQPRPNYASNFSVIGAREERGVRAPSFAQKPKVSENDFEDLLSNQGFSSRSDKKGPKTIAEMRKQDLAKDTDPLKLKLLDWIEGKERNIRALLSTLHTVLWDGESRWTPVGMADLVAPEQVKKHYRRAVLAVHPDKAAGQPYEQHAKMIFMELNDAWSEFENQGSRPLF
UniProt O94915: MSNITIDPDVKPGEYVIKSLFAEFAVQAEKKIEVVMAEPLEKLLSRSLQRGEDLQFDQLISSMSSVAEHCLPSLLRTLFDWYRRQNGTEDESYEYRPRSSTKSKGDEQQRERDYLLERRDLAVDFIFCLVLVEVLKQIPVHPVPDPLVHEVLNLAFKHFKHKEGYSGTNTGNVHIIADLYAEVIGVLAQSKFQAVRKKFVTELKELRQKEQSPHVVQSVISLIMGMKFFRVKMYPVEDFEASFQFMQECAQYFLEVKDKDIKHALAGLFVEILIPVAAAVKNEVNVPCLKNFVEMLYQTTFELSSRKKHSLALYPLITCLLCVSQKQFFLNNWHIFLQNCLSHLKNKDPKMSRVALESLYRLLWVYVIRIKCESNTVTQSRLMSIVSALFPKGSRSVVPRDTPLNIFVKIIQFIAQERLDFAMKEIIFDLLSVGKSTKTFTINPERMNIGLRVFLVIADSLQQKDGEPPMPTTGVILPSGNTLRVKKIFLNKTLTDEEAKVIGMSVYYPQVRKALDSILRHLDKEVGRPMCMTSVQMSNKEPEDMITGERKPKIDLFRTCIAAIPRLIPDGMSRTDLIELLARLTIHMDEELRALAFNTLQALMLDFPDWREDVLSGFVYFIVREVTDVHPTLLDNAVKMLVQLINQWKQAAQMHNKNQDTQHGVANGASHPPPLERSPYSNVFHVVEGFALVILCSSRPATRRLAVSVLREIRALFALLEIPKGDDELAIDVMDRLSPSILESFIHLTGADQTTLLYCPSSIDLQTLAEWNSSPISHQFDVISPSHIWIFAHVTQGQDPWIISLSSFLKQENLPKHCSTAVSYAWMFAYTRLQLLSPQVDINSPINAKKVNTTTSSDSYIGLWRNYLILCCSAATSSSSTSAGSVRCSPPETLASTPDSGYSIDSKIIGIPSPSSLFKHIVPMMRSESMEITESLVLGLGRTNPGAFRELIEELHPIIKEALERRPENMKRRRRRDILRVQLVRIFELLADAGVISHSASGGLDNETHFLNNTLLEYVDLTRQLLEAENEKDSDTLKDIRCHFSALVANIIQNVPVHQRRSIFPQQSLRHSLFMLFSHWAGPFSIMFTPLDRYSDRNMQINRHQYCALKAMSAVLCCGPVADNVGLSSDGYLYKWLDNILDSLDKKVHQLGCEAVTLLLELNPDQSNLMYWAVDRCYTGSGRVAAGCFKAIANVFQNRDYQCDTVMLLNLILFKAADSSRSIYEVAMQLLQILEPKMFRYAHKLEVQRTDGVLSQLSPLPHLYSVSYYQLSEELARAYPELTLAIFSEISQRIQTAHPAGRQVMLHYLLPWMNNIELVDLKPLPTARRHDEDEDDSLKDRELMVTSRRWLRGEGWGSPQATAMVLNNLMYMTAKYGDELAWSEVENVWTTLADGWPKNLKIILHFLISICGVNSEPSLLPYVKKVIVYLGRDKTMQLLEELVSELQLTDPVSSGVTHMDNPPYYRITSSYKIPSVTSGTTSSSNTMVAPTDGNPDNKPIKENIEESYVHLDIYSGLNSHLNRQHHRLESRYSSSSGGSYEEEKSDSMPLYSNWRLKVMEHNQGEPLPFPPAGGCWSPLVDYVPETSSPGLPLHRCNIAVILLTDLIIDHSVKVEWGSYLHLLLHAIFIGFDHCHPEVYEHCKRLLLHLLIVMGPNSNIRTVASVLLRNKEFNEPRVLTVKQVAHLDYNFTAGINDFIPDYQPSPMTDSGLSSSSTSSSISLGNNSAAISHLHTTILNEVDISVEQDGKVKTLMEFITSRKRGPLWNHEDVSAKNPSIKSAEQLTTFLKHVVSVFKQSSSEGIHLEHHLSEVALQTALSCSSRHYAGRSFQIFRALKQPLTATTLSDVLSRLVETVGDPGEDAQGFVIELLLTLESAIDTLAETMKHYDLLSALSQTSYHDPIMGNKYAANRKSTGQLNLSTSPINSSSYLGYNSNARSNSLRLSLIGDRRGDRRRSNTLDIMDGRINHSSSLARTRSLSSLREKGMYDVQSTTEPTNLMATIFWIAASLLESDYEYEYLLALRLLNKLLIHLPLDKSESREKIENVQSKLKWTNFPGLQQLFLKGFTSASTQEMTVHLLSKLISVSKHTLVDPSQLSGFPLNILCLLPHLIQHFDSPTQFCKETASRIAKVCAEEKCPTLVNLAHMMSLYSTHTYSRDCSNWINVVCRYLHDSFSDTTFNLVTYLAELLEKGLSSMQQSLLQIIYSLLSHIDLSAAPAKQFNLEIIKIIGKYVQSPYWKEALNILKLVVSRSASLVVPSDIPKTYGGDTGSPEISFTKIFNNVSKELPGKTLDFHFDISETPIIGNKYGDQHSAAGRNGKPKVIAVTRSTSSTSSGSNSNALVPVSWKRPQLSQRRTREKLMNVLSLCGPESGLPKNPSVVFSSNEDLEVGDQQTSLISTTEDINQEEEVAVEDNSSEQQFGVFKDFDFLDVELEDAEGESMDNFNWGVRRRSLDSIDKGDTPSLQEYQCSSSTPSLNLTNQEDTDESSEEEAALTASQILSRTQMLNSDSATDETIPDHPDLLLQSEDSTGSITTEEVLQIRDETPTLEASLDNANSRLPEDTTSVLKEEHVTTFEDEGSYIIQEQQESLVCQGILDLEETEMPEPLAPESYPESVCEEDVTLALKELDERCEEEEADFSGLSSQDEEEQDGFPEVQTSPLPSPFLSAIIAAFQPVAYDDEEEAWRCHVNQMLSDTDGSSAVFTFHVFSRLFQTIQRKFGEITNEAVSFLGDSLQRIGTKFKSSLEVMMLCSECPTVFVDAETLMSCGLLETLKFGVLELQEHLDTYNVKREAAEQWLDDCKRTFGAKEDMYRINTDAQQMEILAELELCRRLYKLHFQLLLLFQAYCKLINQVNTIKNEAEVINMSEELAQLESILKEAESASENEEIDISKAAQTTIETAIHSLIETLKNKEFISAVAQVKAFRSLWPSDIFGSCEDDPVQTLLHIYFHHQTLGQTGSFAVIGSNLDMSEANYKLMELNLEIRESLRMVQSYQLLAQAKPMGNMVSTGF
UniProt Q96C23: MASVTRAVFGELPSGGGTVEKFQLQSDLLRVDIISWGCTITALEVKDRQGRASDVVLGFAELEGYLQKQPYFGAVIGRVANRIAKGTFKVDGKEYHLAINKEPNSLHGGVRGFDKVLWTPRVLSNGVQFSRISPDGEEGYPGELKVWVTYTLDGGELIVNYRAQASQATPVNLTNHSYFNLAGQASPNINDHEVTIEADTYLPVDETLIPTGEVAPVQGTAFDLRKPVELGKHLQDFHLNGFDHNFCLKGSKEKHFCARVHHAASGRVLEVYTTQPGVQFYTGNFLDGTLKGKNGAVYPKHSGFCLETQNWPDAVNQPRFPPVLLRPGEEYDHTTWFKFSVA
UniProt Q92820: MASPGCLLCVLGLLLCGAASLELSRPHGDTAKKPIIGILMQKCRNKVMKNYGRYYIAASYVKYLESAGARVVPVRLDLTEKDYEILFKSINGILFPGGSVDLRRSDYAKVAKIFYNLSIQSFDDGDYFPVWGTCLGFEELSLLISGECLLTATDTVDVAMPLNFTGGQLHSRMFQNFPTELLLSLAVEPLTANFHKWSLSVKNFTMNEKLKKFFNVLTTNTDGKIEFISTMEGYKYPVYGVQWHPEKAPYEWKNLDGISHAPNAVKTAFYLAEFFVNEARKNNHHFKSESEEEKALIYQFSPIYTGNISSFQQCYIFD
UniProt Q06546: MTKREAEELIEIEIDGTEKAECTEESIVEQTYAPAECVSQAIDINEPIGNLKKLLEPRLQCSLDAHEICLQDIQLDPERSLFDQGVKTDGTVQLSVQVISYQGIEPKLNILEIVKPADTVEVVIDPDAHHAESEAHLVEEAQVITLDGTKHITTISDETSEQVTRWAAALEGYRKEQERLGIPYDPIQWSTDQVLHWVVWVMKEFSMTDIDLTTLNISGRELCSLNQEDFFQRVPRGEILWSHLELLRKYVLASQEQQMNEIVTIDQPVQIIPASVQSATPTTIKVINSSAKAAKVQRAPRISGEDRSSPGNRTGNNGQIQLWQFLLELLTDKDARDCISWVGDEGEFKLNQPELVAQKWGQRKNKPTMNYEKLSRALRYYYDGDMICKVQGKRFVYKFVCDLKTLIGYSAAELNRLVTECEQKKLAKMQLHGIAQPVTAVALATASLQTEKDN
UniProt P04406: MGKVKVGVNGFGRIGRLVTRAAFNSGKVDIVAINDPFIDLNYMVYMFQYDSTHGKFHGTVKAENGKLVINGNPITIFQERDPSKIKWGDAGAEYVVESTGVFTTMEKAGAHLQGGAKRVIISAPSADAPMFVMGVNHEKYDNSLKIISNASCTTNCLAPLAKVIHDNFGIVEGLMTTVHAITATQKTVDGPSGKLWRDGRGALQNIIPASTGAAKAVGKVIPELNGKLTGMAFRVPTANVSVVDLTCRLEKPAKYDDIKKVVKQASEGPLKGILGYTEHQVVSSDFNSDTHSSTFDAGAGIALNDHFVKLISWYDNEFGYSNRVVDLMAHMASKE

Tests used:
Test in all cases: log2 fold change, soluble protein after heating vs DMSO (PISA); higher = thermal stabilisation; K562 cells, 10 uM, 30 min; active = over 0.2 and 3.5 SD of the protein, either way, in both replicates (recomputed)
[1] = compound: CC1=C(C=C(C=C1)NC(=O)C2=CC(=CC=C2)C(C)(C)C#N)NC3=CC4=C(C=C3)N=CN(C4=O)C
Summary of the method: (§1)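 Values are thermal stability changes relative to control samples and are taken from duplicates. They are stated as log2 fold changes. Before quantification by TMTpro 16plex LC-MS/MS with equalised channel sums, K562 cells at 2×10^6 cells/mL were treated with 10 μM compound for 30 min, heated in aliquots for 3 min across 48°C-58°C, pooled, extracted in PBS with 0.5% NP-40 at 4°C, and centrifuged at 21,000xg for 90 min to give the soluble supernatant.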

[2] = compound: CC1=C(C=C(C=C1)NC(=O)C2=CC(=CC=C2)N(C)C)NC(=O)C3=CC=C(C=C3)O
Summary of the method: as §1

[3] = compound: CC1=CC=C(C=C1)SC2=C3C=C(SC3=CN=C2)C(=O)N
Summary of the method: as §1

[4] = compound: CC1=NC(=CC=C1)C2=C(N=C(N2)C(C)(C)C)C3=CC4=NC=CN=C4C=C3
Summary of the method: as §1

[5] = compound: CCCCN(Cc1ccc(C(=O)NO)cc1)C(=O)Nc1ccccc1 [Nexturastat A]
Summary of the method: as §1

[6] = compound: CCCS(=O)(=O)Nc1ccc(F)c(C(=O)c2c[nH]c3ncc(-c4ccc(Cl)cc4)cc23)c1F [vemurafenib]
Summary of the method: as §1

[7] = compound: CCCS(=O)(=O)Nc1ccc(F)c(C(=O)c2c[nH]c3ncc(Cl)cc23)c1F
Summary of the method: as §1

[8] = compound: CCCc1cc(C)[nH]c(=O)c1CNC(=O)c1cc(-c2ccnc(N3CCN(C)CC3)c2)cc2c1cnn2C(C)C
Summary of the method: as §1

[9] = compound: CCN(CC)Cc1ccc2cc(COC(=O)Nc3ccc(C(=O)NO)cc3)ccc2c1 [givinostat]
Summary of the method: as §1

[10] = compound: CCN(CCCOc1ccc2c(Nc3cc(CC(=O)Nc4cccc(F)c4)[nH]n3)ncnc2c1)CCOP(=O)(O)O [barasertib]
Summary of the method: as §1

Measured: log2 fold change

GEMIN4 (UniProt P57678)
inactive: [1] -0.003 | [2] -0.059 | [3] 0.025 | [4] -0.158 | [5] 0.283 | [6] -0.139 | [7] 0.177 | [8] 0.182 | [9] 0.203 | [10] -0.19

GABARAPL1 isoform 2 (UniProt Q9H0R8)
inactive: [1] -0.008 | [2] 0.003 | [3] 0.006 | [4] 0.002 | [5] -0.013 | [6] -0.016 | [7] -0.025 | [8] -0.007 | [9] 0.044 | [10] 0.021

FRG1 (UniProt Q14331)
inactive: [1] -0.018 | [2] -0.011 | [3] -0.091 | [4] -0.214 | [5] 0.084 | [6] -0.026 | [7] -0.017 | [8] 0.021 | [9] -0.03 | [10] -0.037

FXR2 (UniProt P51116)
inactive: [1] 0.013 | [2] 0.044 | [3] -0.104 | [4] 0.059 | [5] 0.373 | [6] -0.037 | [7] 0.05 | [8] 0.139 | [9] 0.099 | [10] -0.071

GAK (UniProt O14976)
inactive: [1] 0.214 | [2] 0.038 | [3] -0.337 | [4] -0.14 | [5] 0.452 | [6] -0.06 | [7] 0.114 | [8] 0.17 | [9] 0.64

FRYL (UniProt O94915)
inactive: [1] 0.037 | [2] -0.042 | [3] -0.039 | [4] -0.002 | [5] 0.021 | [6] -0.03 | [7] -0.002 | [8] 0.017 | [9] -0.004 | [10] 0.004

FOXK1 (UniProt P85037)
inactive: [1] 0.323 | [2] -0.01 | [3] -0.362 | [4] -0.063 | [5] -0.091 | [6] 0.097 | [7] 0.182 | [8] -0.129 | [9] -0.025 | [10] -0.221

GALM (UniProt Q96C23)
inactive: [1] -0.05 | [2] -0.023 | [3] -0.038 | [4] -0.009 | [5] -0.075 | [6] 0.023 | [7] -0.024 | [8] 0.228 | [9] -0.006 | [10] 0.032

GGH (UniProt Q92820)
inactive: [1] 0.004 | [2] 0.017 | [3] -0.001 | [4] 0 | [5] -0.013 | [6] 0.026 | [7] -0.026 | [8] -0.014 | [9] -0.012 | [10] -0.008

FSCN1 (UniProt Q16658)
inactive: [1] 0.065 | [2] 0.011 | [3] 0.036 | [4] 0.074 | [5] -0.059 | [6] 0.054 | [7] 0.065 | [8] 0.014 | [9] -0.015 | [10] 0.008

GABPA (UniProt Q06546)
inactive: [1] -0.007 | [2] -0.011 | [3] 0.064 | [4] 0.039 | [5] 0.008 | [6] 0.062 | [7] 0.09 | [8] -0.004 | [9] 0.17 | [10] 0.022

GGT2 isoform 3 (UniProt P36268)
inactive: [1] 0.059 | [2] 0.089 | [3] -0.083 | [4] 0.101 | [5] 0.083 | [6] 0.026 | [7] -0.072 | [8] -0.022 | [9] -0.097 | [10] -0.032

GARS1 (UniProt H7C443)
inactive: [1] -0.406 | [2] 0.046 | [3] -0.173 | [4] -0.303 | [5] 0.056 | [6] -0.162 | [7] -0.24 | [8] -0.252 | [9] -0.012

GAPDH (UniProt P04406)
inactive: [1] 0.028 | [2] -0.019 | [3] 0.002 | [4] 0.043 | [5] -0.055 | [6] 0.05 | [7] 0.019 | [8] -0.01 | [9] 0.022 | [10] 0.018

Taken from the results shown (2 entries):
GGT2 isoform 3 (UniProt P36268)
inactive: [1] 0.059 | [2] 0.089 | [3] -0.083 | [4] 0.101 | [5] 0.083 | [6] 0.026 | [7] -0.072 | [8] -0.022 | [9] -0.097 | [10] -0.032

GARS1 (UniProt H7C443)
inactive: [1] -0.406 | [2] 0.046 | [3] -0.173 | [4] -0.303 | [5] 0.056 | [6] -0.162 | [7] -0.24 | [8] -0.252 | [9] -0.012

(listing goes on)

G6PD isoform 2 (UniProt P11413)
inactive: [1] 0.016 | [2] -0.01 | [3] 0.003 | [4] 0.039 | [5] -0.063 | [6] 0.036 | [7] 0.027 | [8] 0 | [9] -0.032 | [10] 0.009
